According to patent US11872262B2, “Means and methods for treating bacterial infections” (VIB VZW, priority 2017, dated 2024):
At least one peptide structure holds a part that was inferred or is arguable (an end, a ring closure or a residue). For some assays here: The name of at least one read-out is uncertain. Residues, ends and D or L forms follow the SMILES beside them.

Key:
[1] = Dynamic light scattering (DLS); type: physicochemical; details: DLS upon dissolving
[2] = Solubility of peptide after ultracentrifugation; type: physicochemical; details: identical conditions as colpeptin1
Method: FIG. 1: Activity, cytotoxicity and aggregation of antibacterial aggregating peptides. (A) Time-killing curve of selected peptides against E. coli strain O157 treated at MIC concentration (average and s.d. of 3 replicates). (B, C, D) Transmission electron microcopy (TEM) of cross-sections of E. coli O157 embedded in resin. B is mock treated, C is P2- and D is P105-treated E. coli O157 (2 h). […] (F) Concentration-dependent hemolysis of human erythrocytes by selected peptides (average and s.d. of 3 replicates). (G) Cytoxicity of Colpeptin1 to human HeLa cells measured by CellTiter Blue assay (average and s.d. of 3 replicates) and (H) by LDH release assay (average and s.d. of 3 replicates). […] Data are from a single experiment that was replicated 3 times (J) Histogram of the size distribution of particles calculated from the DLS data recorded of freshly dissolved colpeptin1 using a linear polymer as particle model. […] (M) Fluorescence intensity of the amyloid-specific dye pFTAA added to preparation of colpeptin1, normalised to the intensity observed with amyloid fibrils of the Alzheimer beta-peptide at the same concentration in monomeric units (average and s.d. of 3 replicates). […] (0) Aggregation kinetics of Colpeptin1 monitored by pFTAA fluorescence in the presence of 1 mM hexaphosphate (average and s.d. of 4 replicates). […]

Compound | apparent hydrodynamic radii of main species [1] | solubility upon solubilisation [2]
CC(C)C[C@H](NC(=O)CNC(=O)[C@H](CCCNC(=N)N)NC(=O)[C@@H]1CCCN1C(=O)[C@H](CCCNC(=N)N)NC(=O)[C@H](CCCNC(=N)N)NC(=O)[C@@H](NC(=O)[C@H](CC(C)C)NC(=O)[C@H](C)NC(=O)[C@H](CC(C)C)NC(=O)CNC(=O)[C@H](CC(C)C)NC(=O)CNC(=O)[C@@H](N)CCCNC(=N)N)C(C)C)C(=O)NCC(=O)N[C@@H](CC(C)C)C(=O)N[C@@H](C)C(=O)N[C@@H](CC(C)C)C(=O)N[C@H](C(=O)N[C@@H](CCCNC(=N)N)C(=O)N[C@@H](CCCNC(=N)N)C(=O)O)C(C)C [Peptide P2] (H-RGLGLALVRRPRGLGLALVRR-OH) | 1-2 nm | –
CC(C)C[C@H](NC(=O)CNC(=O)[C@H](CCCNC(=N)N)NC(=O)[C@@H]1CCCN1C(=O)[C@H](CCCNC(=N)N)NC(=O)[C@H](CCCNC(=N)N)NC(=O)[C@@H]1CCCN1C(=O)[C@H](CC(C)C)NC(=O)[C@H](C)NC(=O)[C@@H]1CCCN1C(=O)CNC(=O)[C@H](CC(C)C)NC(=O)CNC(=O)[C@@H](N)CCCNC(=N)N)C(=O)NCC(=O)N1CCC[C@H]1C(=O)N[C@@H](C)C(=O)N[C@@H](CC(C)C)C(=O)N1CCC[C@H]1C(=O)N[C@@H](CCCNC(=N)N)C(=O)N[C@@H](CCCNC(=N)N)C(=O)O [P2 pro2] (H-RGLGPALPRRPRGLGPALPRR-OH) | – | almost completely soluble
